# Data reported in PubChem BioAssay AID2685 (National Center for Advancing Translational Sciences (NCATS), 2010).
# The list shows a part of the results. The main result of the screen is listed elsewhere. These columns were measured beside it and carry no call. The list favours compounds with an active or inconclusive main result. Words in brackets tell the shape of the fitted curve; partial curves, single points and poor fits give uncertain potencies.
# Assay: qHTS Assay for Lipid Storage Modulators in Drosophila S3 Cells;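 for cell number change: cells counted by Cell Tracker Red CMTPX staining in the red channel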
# Conditions: BODIPY lipid droplet fluorescence, 18-24 h; for cell number change: measured here: cell count max response, cells fed with added oleic acid
# In short: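 Drosophila S3 cells got compounds at several concentrations plus oleic acid (400 uM solution). Laser-scanning cytometry with 488 nm excitation read lipid droplets at 500-530 nm and cells at 575-640 nm. Percent activity was relative to 20 uM Triacsin C.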
# [1] = measured here: cell number channel AC50, cells fed with added oleic acid
# [2] = measured here: lipid fluorescence (Fed channel) AC50, cells fed with added oleic acid
SMILES,cell number change [%],AC50 [1],AC50 [2]
COc1ccc(N/C(C)=C/C(=O)c2ccccc2)cc1,46.3,"18.4 µM [rising, single point]","2.31 µM [rising, full curve]"
O=C1COc2ccc(C(=O)c3ccccc3)cc2CN1,-35.1,"20.6 µM [falling, single point]","29.1 µM [falling, single point]"
Cc1ccc(C(=O)Nc2ccc(C(=O)N/N=C/c3ccncc3)cc2)cc1,5.02,"6.51 µM [rising, single point]",
COc1cc(/C=N/NC(=O)c2ccc(NS(=O)(=O)c3cccs3)cc2)cc(OC)c1O,9.92,,"2.91 µM [rising, single point]"
c1csc(Cn2c(-c3cccs3)nc3ccccc32)c1,-3.01,,
O=C(COC(=O)c1ccc2c(c1)C(=O)N(CCc1ccccc1)C2=O)Nc1ccc(OC(F)F)cc1,0.331,,
Cc1cccc(Cn2cc3c(=O)n(Cc4cccc(F)c4)nc-3c3ccccc32)c1,14.9,"0.461 µM [rising, single point]",
Cc1ccc(CCC2C3=C(CCCC3=O)OC3=C2C(=O)CCC3)cc1,68.7,"23.1 µM [rising, single point]","4.61 µM [rising, single point]"
NNC(=O)CNC(c1ccccc1)c1cc(Br)ccc1N (configuration not stated),14.5,"1.64 µM [rising, partial curve, poor fit]","1.84 µM [rising, partial curve]"
CC(=O)c1cc(F)c(N2CCCC2)cc1C,18.2,,"4.11 µM [rising, partial curve, poor fit]"
O=C(/C=C/c1ccc(Cl)cc1)NCCSc1ccccc1,-40.6,"20.6 µM [falling, single point]","23.1 µM [falling, single point]"
O=C(COC(=O)CNC(=O)c1ccccc1F)Nc1cccc(S(=O)(=O)N2CCCCCC2)c1,81.9,"29.1 µM [rising, partial curve, poor fit]",
COc1ccc(N2CC(C)Cn3c2nc2c3c(=O)n(CCc3ccccc3)c(=O)n2C)cc1 (configuration not stated),13.4,,"0.0411 µM [rising, single point]"
COc1ccc(Cc2[nH]n3c(=O)cc(C(C)C)nc3c2-c2ccccc2)cc1,-7.32,,
O=C(Nc1ccnn1C1CCN(C/C=C/c2ccccc2)CC1)c1ccccc1Cl,,,"3.66 µM [rising, partial curve]"
Cc1sc2ncnc(SCC(=O)N3CCC(c4noc5ccc(F)cc45)CC3)c2c1C,,"3.26 µM [falling, partial curve]","0.184 µM [falling, full curve, poor fit]"
O=C1NC(=O)/C(=C/c2ccc(-c3cccc([N+](=O)[O-])c3)o2)S1,-25.1,,"25.9 µM [falling, partial curve]"
O=C(Nc1ncc([N+](=O)[O-])s1)C1CC(=O)N(c2ccc(F)cc2)C1 (configuration not stated),18.4,,

# Ordered by molecular weight (smallest number first): part of the list above
SMILES,cell number change [%],AC50 [1],AC50 [2]
NNC(=O)CNC(c1ccccc1)c1cc(Br)ccc1N (configuration not stated),14.5,"1.64 µM [rising, partial curve, poor fit]","1.84 µM [rising, partial curve]"
Cc1sc2ncnc(SCC(=O)N3CCC(c4noc5ccc(F)cc45)CC3)c2c1C,,"3.26 µM [falling, partial curve]","0.184 µM [falling, full curve, poor fit]"
O=C(COC(=O)CNC(=O)c1ccccc1F)Nc1cccc(S(=O)(=O)N2CCCCCC2)c1,81.9,"29.1 µM [rising, partial curve, poor fit]",

# More structures:

SMILES,cell number change [%],AC50 [1],AC50 [2]
O=C(COc1ccc(Br)cc1)N/N=C1\SCC(=O)N1c1ccc(F)cc1,7.2,,"20.6 µM [rising, partial curve, poor fit]"
Cc1nc(-c2ccc(S(=O)(=O)N3CCCCCC3)cc2)cs1,37.2,"0.58 µM [rising, full curve]","18.4 µM [rising, partial curve]"
Cc1nn(C(C)C(=O)NC(C)CCc2ccccc2)c(=O)c2cc3occc3n12 (configuration not stated),,,"0.58 µM [rising, single point]"
CS(=O)(=O)CCC(C(=O)OCC(=O)c1ccc(Cl)cc1)N1C(=O)c2ccccc2C1=O (configuration not stated),4.6,,"1.16 µM [falling, single point]"
Cc1csc2ncnc(NNC(=O)c3ccc(Cl)cc3)c12,-21.7,"0.58 µM [falling, full curve, poor fit]","0.58 µM [falling, full curve, poor fit]"
Cc1onc(-c2c(F)cccc2Cl)c1C(=O)NC(=S)NC1CCS(=O)(=O)C1 (configuration not stated),-38.9,"25.9 µM [falling, partial curve, poor fit]","0.00517 µM [falling, full curve, poor fit]"
O=C(NCc1ccccc1)C1CCC1,-47.7,"18.4 µM [falling, single point]",
Cc1ccc(NC(=O)CCNC(=O)c2ccco2)cc1Cl,-9.21,,"3.55 µM [falling, single point]"
CCOC(=O)Cc1csc(NC(=O)c2ccc(S(=O)(=O)N3CCCC3)cc2)n1,-21.7,,
CCOC(=O)c1sc2c(c1C)c(=O)n(Cc1ccccc1)c(=O)n2CCN(C)C,10.4,,"4.11 µM [rising, partial curve, poor fit]"
CCc1nc2c(nnn2Cc2ccc(F)cc2)c(=O)[nH]1,66.1,"29.1 µM [rising, single point]",
CN(C)c1ccc(C(=O)OCC(=O)N2CCCCCC2)cc1,,"0.058 µM [rising, full curve, poor fit]","0.00461 µM [rising, full curve, poor fit]"
Cc1cc(Cc2ccc([N+](=O)[O-])cc2)c(C)cn1,23.4,,"29.1 µM [rising, single point]"
CCOC(=O)N1CCC(NC(=O)CCN2C(=O)C3C4C=CC(C4)C3C2=O)CC1 (configuration not stated),-7.37,,"6.51 µM [falling, single point]"
Cc1ccc(CCN2CC(C(=O)NC3CCCC3)CC2=O)cc1 (configuration not stated),37.2,"25.9 µM [rising, single point]","3.66 µM [falling, single point]"
COc1c2ccoc2nc2c(OC)c(OC[C@@H](O)C(C)(C)O)ccc12,25,,"1.46 µM [rising, full curve, poor fit]"
O=C(NCc1ccccc1)C1CCN(S(=O)(=O)c2cccc3cccnc23)CC1,,,"6.51 µM [rising, single point]"
CCc1ccccc1NC(=O)C1CCCN1S(=O)(=O)c1ccc2c(c1)n(C)c(=O)c(=O)n2C (configuration not stated),-12,,
